From PubChem BioAssay AID2551 (National Center for Advancing Translational Sciences (NCATS), 2010)
The campaign covered roughly 310,000 compounds. About 17,000 (5.5%) were called active. The shares of active, inactive and inconclusive entries below differ from those in the screen. Calls follow the shape of the dose curve; as a rule, active = well fitted inhibition curve with a large enough effect; inconclusive = small, poorly fitted or top-dose-only effect, or effect the other way; inactive = no such curve, though single readings can be large or run the other way. A potency beside an inconclusive call is a rough fit, not a confirmed value.
% is scaled to controls: 0 for no effect and ±100 for the full control effect; potency is read from the fitted curve at half-maximal effect.
Also: nearly all actives have a fitted effect of over 60% in size.

Chains of the proteins cited; added tags and fusions are not shown. Lines headed by an entry give the natural chain unless they say otherwise; changes in a name come on top.
UniProt P51450: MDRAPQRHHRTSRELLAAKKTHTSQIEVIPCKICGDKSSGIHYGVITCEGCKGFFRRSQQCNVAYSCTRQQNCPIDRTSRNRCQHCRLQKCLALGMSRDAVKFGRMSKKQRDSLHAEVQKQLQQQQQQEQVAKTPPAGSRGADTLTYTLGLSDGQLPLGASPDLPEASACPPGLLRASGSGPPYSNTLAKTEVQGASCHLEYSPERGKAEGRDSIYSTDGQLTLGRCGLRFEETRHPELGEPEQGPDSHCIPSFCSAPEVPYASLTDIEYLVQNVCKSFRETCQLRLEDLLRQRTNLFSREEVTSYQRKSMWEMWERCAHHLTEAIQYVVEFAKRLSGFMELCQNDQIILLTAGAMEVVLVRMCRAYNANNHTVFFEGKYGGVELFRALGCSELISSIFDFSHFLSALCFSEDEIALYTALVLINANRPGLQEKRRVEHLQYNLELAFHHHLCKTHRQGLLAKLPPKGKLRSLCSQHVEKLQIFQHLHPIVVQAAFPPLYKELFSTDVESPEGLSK

What follows are molecules tested against Nuclear receptor ROR-gamma (Mus musculus) (UniProt P51450) (assay: qHTS for inhibitors of ROR gamma transcriptional activity). Settings: Drosophila S2 Gal4-RORgamma UAS-luciferase reporter, 20 h; activity change, negative = inhibition: at 53.6 µM (top of the series).
Summary of the method: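 Stable Schneider cell line, Gal4 DNA-binding domain fused to ROR gamma, UAS-luciferase. Cmpd 1 hr RT → CuSO4 700 uM final → 20 hr RT → luciferase reagent 10 min → luminescence.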
In the case of c1ccc(Oc2ccc(-c3ccnc4nc(N5CCOCC5)nn34)cc2)cc1, the Potency is reported as inconclusive: 15.8 µM [activator, partial curve].
In the case of CC(=O)c1nn(-c2ccc(Br)cc2)cc1C(=O)c1ccco1, the Potency is reported as inconclusive: 0.0089 µM [inhibitor, full curve, poor fit].
CCCCCC(C)NC(=S)NC(=O)c1cc(S(=O)(=O)N2CCOCC2)ccc1C (stereo not given) was tested, and the Potency was active: 10 µM.
For O=C(Nc1cccnc1)c1ccc(N2CCCC2)c([N+](=O)[O-])c1, the Potency was inconclusive: 2.51 µM [activator, partial curve, poor fit].
For CN(C)c1c(-c2ccccc2)cc(-c2ccccc2)[nH]c1=O, the Potency was “inactive”.
For O=C(Nc1nc(-c2ccccn2)cs1)c1cc2ccccc2o1, the Potency was active: 1.58 µM.
For CC(Oc1ccccc1)C(=O)Nc1nnc(S(=O)(=O)N(C)c2ccccc2)s1 (stereo not given), the Potency was inconclusive: 31.6 µM [activator, single point].
With O=C(Nc1nc(-c2ccccn2)cs1)C1CC(=O)N(c2ccc3c(c2)OCCO3)C1 (stereo not given) the Potency was active: 10 µM.
For CCN(CC)S(=O)(=O)c1ccc(N/N=C(\C)c2ccc(OC)cc2O)nc1, the Potency was active: 0.708 µM.
In the case of Cc1cccc(Cc2cnc(N3C(=N)SC(c4ccccc4)C3=O)s2)c1 (stereo not given), the Potency is reported as inconclusive: 5.62 µM [inhibitor, single point].
For Cn1nnnc1NCc1c(F)cccc1Cl, the Potency was “inactive”.
In the case of O=S(=O)(NCCc1ccc2c(c1)OCCO2)c1cccs1, the Potency is reported as inconclusive: 12.6 µM [activator, single point].
For COc1ccc(O)c(/C=N/NC(=S)Nc2cccc(S(=O)(=O)N(C)C)c2)c1, the Potency was inconclusive: 0.631 µM [inhibitor, single point].
COc1ccc(CCC(=O)O)cc1OC was tested, and the Potency was “inactive”.
With Nc1nc2nn(-c3ccccc3)nc2c(=O)[nH]1 the Potency was inconclusive: 12.6 µM [inhibitor, single point].
With Cc1ccc([N+](=O)[O-])cc1-c1[nH]c(-c2ccc(O)c(O)c2)nc1-c1ccccc1 the Potency was inconclusive: 20 µM [inhibitor, single point].
O=C1NC(c2ccccc2O)Nc2ccccc21 (stereo not given) was tested, and the Potency was “inactive”.
O=C(COc1ccccc1)Nc1nc(-c2cccs2)cs1 was tested, and the activity change, negative = inhibition was inactive: -3.4% [at 10 µM].
With O=C(/C=C/c1ccncc1)c1ccc(NC(=O)c2ccccc2F)cc1 the Potency was inconclusive: 22.4 µM [inhibitor, single point].
In the case of CC(=O)Nc1nc2ccccc2n1CCOc1ccccc1Cl, the Potency is reported as active: 0.794 µM.
Cc1cc(NC(=O)c2cccc(COc3ccc(Br)cc3)c2)no1 was tested, and the Potency was active: 7.08 µM.
With O=C(O)c1ccc(NS(=O)(=O)c2ccc(Cl)cc2)cc1 the Potency was inconclusive: 31.6 µM [inhibitor, single point].
In the case of COc1ccc(C(=O)NC2CCCc3c2cnn3-c2ccccc2F)cc1OC (stereo not given), the Potency is reported as inconclusive: 14.1 µM [inhibitor, single point].
C/C(=N/Nc1nc(-c2ccccc2)c(CC(=O)O)s1)c1ccccc1 was tested, and the Potency was active: 11.2 µM.
In the case of CC(C)NC(=O)c1ccccc1NC(=O)CN(c1ccc2c(c1)OCO2)S(C)(=O)=O, the Potency is reported as “inactive”.
For O=C1/C(=C/c2cccnc2)SC(=S)N1Nc1ccccc1, the Potency was inconclusive: 35.5 µM [inhibitor, single point].
CC(C)NC(=O)NC(=O)COC(=O)c1ccc(S(=O)(=O)Nc2ccccc2)cc1 was tested, and the Potency was inconclusive: 15.8 µM [activator, single point].
CC(=O)c1cn(CC(=O)Nc2ccccc2C)c2ccccc12 was tested, and the Potency was inconclusive: 1.41 µM [activator, partial curve].
In the case of O=C(Nc1cccc(NC(=O)c2ccco2)n1)c1ccco1, the Potency is reported as inconclusive: 12.6 µM [activator, single point].
In the case of O=C(Oc1cccc(Nc2ncnc3ccccc23)c1)c1cccnc1, the Potency is reported as “inactive”.
CCOC(=O)C1(CCCc2ccccc2)CCN(C(=O)CCn2cnnn2)CC1 was tested, and the Potency was inconclusive: 35.5 µM [activator, single point].
For COc1ccc(Oc2cccc(Cl)c2CNC(=O)CCCC(=O)O)cc1, the Potency was “inactive”.
For COc1ccccc1N1CCN(S(=O)(=O)c2ccc(Cl)s2)CC1, the Potency was inconclusive: 11.2 µM [activator, partial curve].
For O=C(NCC(c1ccco1)N1CCCCC1)c1cccc(S(=O)(=O)Nc2ccccc2Cl)c1 (stereo not given), the Potency was inconclusive: 7.08 µM [activator, partial curve].
In the case of COc1cccc(OCC(=O)NNC(=O)Cc2cccs2)c1, the Potency is reported as “inactive”.
With CN(CC1CCCN(CCc2cccc(C(F)(F)F)c2)C1)C(=O)c1cc2ccccc2o1 (stereo not given) the Potency was “inactive”.
For CN(C)c1nc(NC2CCC(NC(=O)c3ccc(F)c(F)c3)CC2)nc2ccccc12 (stereo not given), the Potency was inconclusive: 35.5 µM [inhibitor, single point].
For COc1ccc(S(=O)(=O)N/N=C(/C)c2ccco2)cc1, the Potency was inconclusive: 3.16 µM [activator, full curve].
CCN(N)C(=S)Nc1ccc(F)cc1 was tested, and the Potency was inconclusive: 14.1 µM [inhibitor, single point].
With Nc1nnc2c(n1)CCCC2 the Potency was “inactive”.
For CCN(CC)S(=O)(=O)c1cccc(-c2n[nH]c(=S)n2Cc2ccccc2)c1, the Potency was inconclusive: 7.08 µM [inhibitor, full curve, poor fit].
CCCSc1ccc2nc(-c3ccccc3)cn2c1 was tested, and the Potency was active: 2.24 µM.
In the case of CC(=O)Oc1ccc2c(=O)oc(-c3ccccc3)nc2c1, the Potency is reported as “inactive”.
In the case of Cc1ccc(C2C(C#N)=C(N)SC(N)=C2C#N)c(C)c1, the Potency is reported as inconclusive: 7.08 µM [inhibitor, single point].
CCCCOc1ccc(NC(=S)Nc2cc(C)nc(SCCCC)n2)cc1 was tested, and the Potency was active: 1.41 µM.
With COCc1[nH]c(=S)c(C#N)cc1C(=O)OC the Potency was inconclusive: 12.6 µM [inhibitor, single point].
In the case of Cc1oc(-c2ccccc2F)nc1CS(=O)(=O)CC(=O)NCCCc1ccccc1, the Potency is reported as “inactive”.
For Cc1cccc(NC(=O)c2onc3c2CCCC3)c1C, the Potency was inconclusive: 25.1 µM [inhibitor, single point].
For CCn1c(CSCc2ccc(Cl)cc2)n[nH]c1=S, the Potency was active: 2.24 µM.
In the case of O=C(CN1CCCC1)N1CCCc2c1c(=O)oc1ccc(OCc3ccccc3)cc21, the Potency is reported as inconclusive: 35.5 µM [inhibitor, single point].
With C/C(=N\NC(=O)c1ccc(Cl)cc1)c1ccc(Br)s1 the Potency was active: 0.355 µM.
Oc1ccc(/C=N/Nc2ccc(C(F)(F)F)cn2)cc1O was tested, and the Potency was inconclusive: 22.4 µM [inhibitor, single point].
CC(NC(=O)c1ccccc1)c1nc2ccccc2n1Cc1ccccc1F (stereo not given) was tested, and the Potency was inconclusive: 5.62 µM [inhibitor, single point].
In the case of CC(=O)c1ccc(NC(=O)c2cc(C)nc3ccccc23)cc1, the Potency is reported as inconclusive: 5.62 µM [activator, full curve].
For Cc1cc(OCC(=O)Nc2ccccc2F)nc(C(C)C)n1, the Potency was “inactive”.
For COc1cc(/C=N/Nc2nc3ccccc3s2)cc([N+](=O)[O-])c1O, the Potency was “inactive”.
COc1cc(CN2CCCCCC2)cc(OC)c1 was tested, and the Potency was “inactive”.
For OCCN1CCN(c2nnc(-c3ccccc3)c3ccccc23)CC1, the Potency was “inactive”.
COc1ccc([N+](=O)[O-])cc1N(CC1CO1)S(=O)(=O)c1ccc(C)cc1 (stereo not given) was tested, and the Potency was inconclusive: 11.2 µM [activator, partial curve].
With Cc1cc(Cl)ccc1OCC(=O)NCc1ccncc1 the Potency was “inactive”.
For C/C(=N\Nc1nc(C(=O)O)cs1)c1ccccc1, the Potency was active: 0.631 µM.
In the case of C=CCc1c(C)nc(C)nc1N/N=C/c1ccccc1O, the Potency is reported as inconclusive: 6.31 µM [inhibitor, single point].
For Cc1ccc(OCc2nnc(SC3CCc4ccccc4C3=O)n2C)cc1 (stereo not given), the Potency was inconclusive: 35.5 µM [inhibitor, single point].
With CC(C)c1ccc(N(CC(=O)N/N=C/c2ccc(OC3CSC3)cc2)S(=O)(=O)c2ccccc2)cc1 the Potency was “inactive”.
With CC(=O)c1cn(CC(=O)Nc2ccccc2F)c2ccccc12 the Potency was inconclusive: 17.8 µM [activator, partial curve].
With O=C(CCC(=O)OCCCC(F)(F)C(F)(F)F)Nc1ccc(Cl)cc1Cl the Potency was “inactive”.
With CCOC(=O)N1CCC(c2cc(=O)n(-c3ccccc3)[nH]2)CC1 the Potency was inconclusive: 35.5 µM [activator, single point].
For CC(C)(C)NC(=O)N1CCCC(C(=O)c2cccc(Cl)c2)C1 (stereo not given), the Potency was “inactive”.
In the case of CC(C)(C)OC(=O)N1CCC[C@H]1C(=O)Nc1ccc(S(=O)(=O)C(F)F)cc1, the Potency is reported as “inactive”.
In the case of CCOc1ccc(/C=N/NC(=O)C(O)c2ccccc2)c(O)c1 (stereo not given), the Potency is reported as active: 0.794 µM.
Cn1ccc(C(=O)OCC(=O)Nc2ccccc2Cl)n1 was tested, and the Potency was “inactive”.
Cc1cccc(N2CCN(C(=O)CCCn3c(=S)[nH]c4cc5c(cc4c3=O)OCO5)CC2)c1C was tested, and the Potency was active: 3.16 µM.
For Cc1cc(Cl)ccc1NC(=O)CCC(=O)N/N=C/c1cc([N+](=O)[O-])ccc1O, the Potency was inconclusive: 10 µM [inhibitor, partial curve].
With CCc1ccc(NC(=S)Nn2cnnc2)cc1 the Potency was active: 1.12 µM.
For Cc1cccc(NC(=O)NNC(=O)COc2ccc([N+](=O)[O-])cc2)c1C, the Potency was “inactive”.
In the case of CCC(=O)N1CCN=C1SCc1cc(C)ccc1C, the Potency is reported as “inactive”.
With CC(=O)c1sc(NS(=O)(=O)c2ccc(C)cc2)nc1-c1ccccc1 the Potency was inconclusive: 10 µM [inhibitor, partial curve].
CNC(=O)c1cc2c(-c3ccccc3)nn(C)c2s1 was tested, and the Potency was inconclusive: 35.5 µM [activator, single point].
COc1cccc(C(=O)Nc2nnc(C(C)C)s2)c1 was tested, and the Potency was active: 8.91 µM.
With Cc1ccc(Cl)cc1NS(=O)(=O)c1ccc(-n2cccn2)cc1 the Potency was “inactive”.
